Source: patent US20210269539A1
Results are given in words; binding and its absence hold for the method and conditions named. Some entries that bind do so weakly or less than the wild type. Sequences can lack the tags named with a protein.

What was measured:
human OX40-6his (human) [1] = target: T1, human OX40-6his (human) (UniProt P43489); assay: PK ELISA, human OX40-6his coated, antibody from mouse serum
T1 sequence: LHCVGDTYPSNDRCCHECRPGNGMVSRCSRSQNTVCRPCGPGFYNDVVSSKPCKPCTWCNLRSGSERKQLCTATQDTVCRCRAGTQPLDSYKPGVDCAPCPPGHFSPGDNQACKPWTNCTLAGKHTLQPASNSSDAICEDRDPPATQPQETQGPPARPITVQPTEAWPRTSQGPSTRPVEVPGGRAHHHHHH

human OX40-6his (human) [2] = target: T1, human OX40-6his (human); assay: PK ELISA, human OX40-6his coated, antibody from cynomolgus monkey serum

B1: MT01-C1(G2) (antibody, human IgG2, kappa)
heavy: EVQLVQSGAEVKKPGESLKISCKASGYTFTSYVMHWLRQMPGKGLEWMGYINPYNDGTKYNEKFKGQVTISSDKSISTAYLQWSSLKASDTAMYYCANYYGSKFAMDYWGQGTMVTVSSASTKGPSVFPLAPCSRSTSESTAALGCLVKDYFPEPVTVSWNSGALTSGVHTFPAVLQSSGLYSLSSVVTVPSSNFGTQTYTCNVDHKPSNTKVDKTVERKCCVECPPCPAPPVAGPSVFLFPPKPKDTLMISRTPEVTCVVVDVSHEDPEVQFNWYVDGVEVHNAKTKPREEQFNSTFRVVSVLTVVHQDWLNGKEYKCKVSNKGLPAPIEKTISKTKGQPREPQVYTLPPSREEMTKNQVSLTCLVKGFYPSDIAVEWESNGQPENNYKTTPPMLDSDGSFFLYSKLTVDKSRWQQGNVFSCSVMHEALHNHYTQKSLSLSPGK
light: DIQMTQSPSSVSASVGDRVTITCRASQDISNYLSWYQQKPGGAVKLLIYYTSRLHSGVPSRFSGSGSGTDYTLTISSLQPEDFATYFCQQGITLPWTFGQGTKVEIKRTVAAPSVFIFPPSDEQLKSGTASVVCLLNNFYPREAKVQWKVDNALQSGNSQESVTEQDSKDSTYSLSSTLTLSKADYEKHKVYACEVTHQGLSSPVTKSFNRGEC
In the case of B1, the binding (human OX40-6his (human) [1]) is reported as “binds” and the binding (human OX40-6his (human) [2]) is reported as “binds”.
